Patent publication US10006057B2, “Recombinant yeast having enhanced gamma valerolactone tolerance and methods of use” (Wisconsin Alumni Research Foundation, priority 2014, dated 2018)
Entries after “also recorded” stand apart in the source; their conditions may differ. For at least one compound, name, drawing or mass did not settle the structure.

Test system: Y133 pad1Δfdc1Δ
Test: IC50 / tolerance, growth inhibition
Type: cell-based, Saccharomyces cerevisiae
Conditions: FIG. 6D; p<0.01

**Q.** Which “tolerance of coumaric acid versus Y133” value does the source give for O=C(O)/C=C/c1ccc(O)cc1 [coumaric acid, reference compound] here?
**A.** The value was “confers resistance; also recorded: statistically significantly greater tolerance”.
